The target of this test is FtsZ from Shewanella oneidensis MR-1 (FtsZSo), His-tagged, purified (Shewanella oneidensis MR-1) (UniProt Q8E9Q1). The test is described as follows: in vitro polymerisation seen by negative-stain TEM; 5 uM purified FtsZ, 50 mM KCl, 10 mM MgCl2, 50 mM Tris-HCl pH 8.0, 2 mM GTP; 10 min at atmospheric pressure, then 5 h at 50 MPa, ambient temperature; fixed under pressure with glutaraldehyde, stained with 1% uranyl acetate; filament bundles counted on each grid; both purified.

These are yes or no findings as the source states them, for the method shown. Some results given as binding are weak or reduced against the parent protein; the word gives no strength. Where a sequence is shown, tags or fusion partners need not be part of it.

The text below walks through data of paper PMC11362102, “N-terminus GTPase domain of the cytoskeleton protein FtsZ plays a critical role in its adaptation to high hydrostatic pressure” (Frontiers in Microbiology, 2024).

B1: FtsZ from Shewanella oneidensis MR-1 (FtsZSo), His-tagged, purified (natural protein, UniProt Q8E9Q1 1-395, looked up)
chain: MFEIMDTHSDDAVIKVIGVGGGGGNAVEHMVKHNIEGVEFVVTNTDAQALRKSGAGSTIQLGRDVTKGLGAGANPEVGRAAAEEDRENIRAAIKGSDMIFIAAGMGGGTGTGAAPVVAQIAREEGILTVAVVTKPFPFEGKKRMAYAEQGIAELAKHVDSLITIPNEKLLKVLGRGTSLLDAFAAANNVLLGAVQGIAELITRPGLINVDFADVKTVMSEMGNAMMGTGVARGEDRAEEAAEAAVASPLLEDIDLAGARGVLVNITAGMDMSIEEFETVGNHVKAYASDNATVVVGAVIDPEMSDELRVTVVATGIGAEKRPDIQLVSKPAPRPEPVVVEPKVEAYVEEATHVSYAAPKGNVLPAAPAPAPAPAPSTKHELDYLDIPAFLRKQAD
notes: FtsZ of Shewanella oneidensis MR-1; ftsZSo amplified and cloned into pET28a(+) at BamHI/XhoI; the printed limits (nucleotides up to 1185, residues up to 395) point to 395 residues; Polymerises into filaments with GTP; source: E. coli Rosetta (DE3), pET28a(+), purified (Ni2+-agarose)
With B1, the binding entry is given as “binds weakly”.
